Test results: the supplement of paper PMC12819154, “High-throughput peptide-centric local stability assay extends protein–ligand identification to membrane proteins, tissues and bacteria” (Nature Structural & Molecular Biology, 2025)
This is one part of the list. Most entries show no effect beyond the scatter of the controls.

Amino acid sequences for entries named in this document (tags omitted). A change or cut given only in a name is not applied to a line headed by its entry.
UniProt P0AFR0: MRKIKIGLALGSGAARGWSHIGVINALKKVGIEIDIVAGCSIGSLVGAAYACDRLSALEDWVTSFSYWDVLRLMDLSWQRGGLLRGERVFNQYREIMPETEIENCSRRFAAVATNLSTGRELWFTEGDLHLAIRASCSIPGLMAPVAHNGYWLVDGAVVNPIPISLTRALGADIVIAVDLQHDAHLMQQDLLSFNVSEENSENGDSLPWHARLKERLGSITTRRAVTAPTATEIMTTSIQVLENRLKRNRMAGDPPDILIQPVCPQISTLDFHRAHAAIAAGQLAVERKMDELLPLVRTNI
UniProt P0AEJ4: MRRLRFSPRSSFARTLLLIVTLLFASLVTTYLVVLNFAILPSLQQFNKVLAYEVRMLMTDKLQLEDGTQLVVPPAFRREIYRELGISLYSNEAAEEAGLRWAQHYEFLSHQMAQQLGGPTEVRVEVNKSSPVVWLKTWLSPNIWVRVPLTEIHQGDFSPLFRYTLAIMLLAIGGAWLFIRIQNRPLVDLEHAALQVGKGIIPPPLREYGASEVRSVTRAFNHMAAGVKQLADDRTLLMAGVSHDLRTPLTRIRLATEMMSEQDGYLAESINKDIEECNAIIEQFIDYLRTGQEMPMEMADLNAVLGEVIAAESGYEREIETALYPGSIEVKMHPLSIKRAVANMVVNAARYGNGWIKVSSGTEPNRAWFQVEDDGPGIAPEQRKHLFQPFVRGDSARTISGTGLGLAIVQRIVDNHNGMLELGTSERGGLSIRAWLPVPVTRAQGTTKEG
UniProt P0AFU8: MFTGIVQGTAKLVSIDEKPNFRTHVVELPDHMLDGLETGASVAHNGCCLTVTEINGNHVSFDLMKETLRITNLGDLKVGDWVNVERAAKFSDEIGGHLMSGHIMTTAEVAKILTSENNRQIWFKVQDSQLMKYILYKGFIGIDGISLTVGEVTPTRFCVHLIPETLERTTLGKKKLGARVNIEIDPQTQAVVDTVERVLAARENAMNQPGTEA
UniProt P0AEH3: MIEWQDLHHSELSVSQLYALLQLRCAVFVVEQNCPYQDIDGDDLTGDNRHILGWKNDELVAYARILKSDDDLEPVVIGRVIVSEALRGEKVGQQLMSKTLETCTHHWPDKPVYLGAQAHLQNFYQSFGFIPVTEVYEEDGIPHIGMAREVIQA
UniProt P0AEG4: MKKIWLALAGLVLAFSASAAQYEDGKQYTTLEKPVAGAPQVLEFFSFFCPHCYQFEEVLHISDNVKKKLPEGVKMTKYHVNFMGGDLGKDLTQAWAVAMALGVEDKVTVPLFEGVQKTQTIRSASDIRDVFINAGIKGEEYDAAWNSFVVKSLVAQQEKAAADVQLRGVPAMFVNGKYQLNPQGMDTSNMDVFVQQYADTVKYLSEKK
UniProt P0AFK9: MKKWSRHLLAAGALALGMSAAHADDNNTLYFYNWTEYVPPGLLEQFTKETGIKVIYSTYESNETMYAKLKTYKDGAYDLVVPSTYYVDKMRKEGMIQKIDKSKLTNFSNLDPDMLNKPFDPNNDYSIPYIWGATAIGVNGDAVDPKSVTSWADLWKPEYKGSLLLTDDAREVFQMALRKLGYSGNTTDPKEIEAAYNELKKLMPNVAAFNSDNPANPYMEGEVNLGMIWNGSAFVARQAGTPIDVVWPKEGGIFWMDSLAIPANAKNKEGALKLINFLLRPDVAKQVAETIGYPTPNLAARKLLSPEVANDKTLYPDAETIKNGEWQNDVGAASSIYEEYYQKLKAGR
UniProt P0AF43: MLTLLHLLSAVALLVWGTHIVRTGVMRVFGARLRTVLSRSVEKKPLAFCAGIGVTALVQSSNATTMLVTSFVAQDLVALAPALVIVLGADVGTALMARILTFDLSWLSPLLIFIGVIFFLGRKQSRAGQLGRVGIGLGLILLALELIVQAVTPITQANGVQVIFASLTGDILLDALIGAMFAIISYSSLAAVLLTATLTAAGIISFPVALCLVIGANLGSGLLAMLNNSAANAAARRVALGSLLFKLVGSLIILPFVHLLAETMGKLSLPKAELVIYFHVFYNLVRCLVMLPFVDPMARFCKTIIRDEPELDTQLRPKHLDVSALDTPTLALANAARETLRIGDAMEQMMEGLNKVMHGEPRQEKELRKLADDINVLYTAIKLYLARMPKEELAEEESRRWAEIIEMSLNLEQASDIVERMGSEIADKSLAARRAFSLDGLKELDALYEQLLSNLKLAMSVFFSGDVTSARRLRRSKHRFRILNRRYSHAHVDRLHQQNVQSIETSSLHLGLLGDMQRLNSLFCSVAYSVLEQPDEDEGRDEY
UniProt P0AG82: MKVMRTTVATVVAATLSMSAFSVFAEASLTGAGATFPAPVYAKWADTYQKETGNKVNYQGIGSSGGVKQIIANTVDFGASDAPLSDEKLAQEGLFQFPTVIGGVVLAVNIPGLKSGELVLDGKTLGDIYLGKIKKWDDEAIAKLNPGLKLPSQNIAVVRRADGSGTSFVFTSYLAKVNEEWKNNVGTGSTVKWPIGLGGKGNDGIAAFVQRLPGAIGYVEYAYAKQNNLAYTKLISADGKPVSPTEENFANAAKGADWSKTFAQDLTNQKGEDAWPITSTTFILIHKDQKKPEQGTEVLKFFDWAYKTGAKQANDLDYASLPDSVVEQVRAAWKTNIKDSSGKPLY
UniProt P0ADP7: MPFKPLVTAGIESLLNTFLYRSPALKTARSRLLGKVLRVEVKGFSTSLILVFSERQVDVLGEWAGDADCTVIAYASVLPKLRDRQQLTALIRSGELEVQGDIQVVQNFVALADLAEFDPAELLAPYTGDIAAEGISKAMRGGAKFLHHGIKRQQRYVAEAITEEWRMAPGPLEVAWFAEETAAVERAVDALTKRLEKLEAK
UniProt P0AEE1: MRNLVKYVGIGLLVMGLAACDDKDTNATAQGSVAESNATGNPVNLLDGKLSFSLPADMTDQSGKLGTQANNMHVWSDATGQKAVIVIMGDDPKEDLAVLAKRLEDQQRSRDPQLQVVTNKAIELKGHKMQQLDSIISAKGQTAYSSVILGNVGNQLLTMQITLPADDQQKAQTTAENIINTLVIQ

compound: CC1(C)S[C@@H]2[C@H](NC(=O)[C@H](N)c3ccccc3)C(=O)N2[C@H]1C(=O)O [ampicillin]; assay: log2 fold change of tryptic peptide abundance, ligand vs vehicle (limited proteolysis) (log2 ratio); higher = more trypsin-susceptible (destabilized); details: ligand concentration: 10 uM; sample: E. coli crude lysate

Row | Target | log2 fold change
1 | UniProt P0AFR0 (peptide sequence: GWSHIGVINALKK, peptide start residue: 17) | 0.353
2 | UniProt P0AEJ4 (peptide sequence: AFNHMAAGVK, peptide start residue: 219) | -0.632
3 | UniProt P0AFU8 (peptide sequence: ENAMNQPGTEA, peptide start residue: 203) | -0.272
4 | UniProt P0AEH3 (peptide sequence: HILGWKNDELVAYAR, peptide start residue: 50) | -0.447
5 | UniProt P0AEG4 (peptide sequence: KKLPEGVK, peptide start residue: 67) | 0.382
6 | UniProt P0AFK9 (peptide sequence: SVTSWADLWKPEYK, peptide start residue: 147) | -0.418
7 | UniProt P0AF43 (peptide sequence: LHQQNVQSIETSSLHLGLLGDMQR, peptide start residue: 495) | 0.198
8 | UniProt P0AG82 (peptide sequence: VNYQGIGSSGGVK, peptide start residue: 56) | 0.199
9 | UniProt P0ADP7 (peptide sequence: QQLTALIR, peptide start residue: 85) | -0.0393
10 | UniProt P0AEE1 (peptide sequence: AVIVIMGDDPKEDLAVLAKR, peptide start residue: 83) | 0.147

2 entries drawn at random from those above:
Row | Target | log2 fold change
2 | UniProt P0AEJ4 (peptide sequence: AFNHMAAGVK, peptide start residue: 219) | -0.632
5 | UniProt P0AEG4 (peptide sequence: KKLPEGVK, peptide start residue: 67) | 0.382
